From patent publication US20110294219A1 come the findings set out here.

Chains of the proteins cited; added tags and fusions are not shown.
UniProt Q9HC16: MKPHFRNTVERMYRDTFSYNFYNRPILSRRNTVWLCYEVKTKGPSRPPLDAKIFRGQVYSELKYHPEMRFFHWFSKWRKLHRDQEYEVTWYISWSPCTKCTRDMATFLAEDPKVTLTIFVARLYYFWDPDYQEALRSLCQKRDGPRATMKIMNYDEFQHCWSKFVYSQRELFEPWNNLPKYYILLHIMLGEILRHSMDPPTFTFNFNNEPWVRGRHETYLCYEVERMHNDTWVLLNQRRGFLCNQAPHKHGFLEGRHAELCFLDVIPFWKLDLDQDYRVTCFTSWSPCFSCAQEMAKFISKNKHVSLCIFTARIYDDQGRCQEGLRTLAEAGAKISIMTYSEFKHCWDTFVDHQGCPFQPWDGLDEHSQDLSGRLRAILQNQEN

Results are given in words; binding and its absence hold for the method and conditions named. Binding seen in cells or lysates may run through a third protein. Some entries that bind do so weakly or less than the wild type.

This experiment deals with HA-tagged human APOBEC3G (human) (UniProt Q9HC16). The experiment can be described thus: co-precipitation with anti-HA antibody from cytoplasmic extracts of co-transfected 293T cells, immunoblot with anti-HFV Bet antiserum.

B1: human foamy virus (HFV) Bet protein (protein)
chain: MDSYEKEESVASTSGIQDLQTLSELVGPENAGEGELTIAEEPEENPRRPRRYTKREVKCVSYHAYKEIEDKHPQHIKLQDWIPTPEEMIAQKVQNQDLGTILSFDVTCLKSITSLGRNDPGDDPSIMSHVLPVVTPWPMSQDHYAPTLFGILDRYYQGYLKSPATYQTWKFTCQVDPSGKRFMETQFWVPPLGQVNIQFYKNYQILTCCQAVDPFANIFHGTDEEMFDIDSGPDVWCSPSLCFKVIYEGAMGQKQEQKTWLCRLGHGHRMGACDYRKVDLYAMRQGKENPYGDRGDAALQYAYQVKRGCKAGCLASPVLNYKALQFHRTIMADFTNPRIGEGHLAHGYQAAMEAYGPQRGSNEERVWWNVTRNQGKQGGEYYREGGEEPHYPNTPAPHRRTWDERHKVLKLSSFATPSDIQRWTTKALPYGWKVVTESGNDYTSRRKIRTLTEMTQDEIRKRWESGYCDPFIDSGSDSDGPF
As for B1, the binding entry was “binds”.
